Measured values published in patent US9822373B2, “Mutant cells for protein secretion and lignocellulose degradation” (The Regents of the University of California, priority 2011, dated 2017).
Some entries share one result that the patent states for a list of compounds.

Tested on: endoglucanase 2 (eg-2 / gh5-1, NCU00762)
Assay: Quantitative RT-PCR of eg-2/gh5-1 expression after 4 h induction with a carbon source
Type: cell-based, Neurospora crassa
Details: Δ3βG strain; Example 3 (0.2% cellobiose, 4 hrs)
Description: Strains were inoculated at an OD595 equal to 0.05 in 50 ml Vogel's salts with 2% (wt/vol) sucrose in a 250 ml Erlenmeyer flask and grown under constant light at 200 rpm for 16 hours. The biomass was then spun at 4000 rpm for 10 minutes and washed in Vogel's twice to remove any excess sucrose. The biomass was then added to a new 50 ml culture with 2% (wt/vol) sucrose, cellobiose (Sigma) or Avicel® PH 101 (Avicel®). Cultures were induced for 4 hours under constant light at 200 rpm. The culture biomass was then harvested by filtration over a Whatman glass microfiber filter (GF/F) on a Buchner funnel and washed with 50 ml Vogel's, biomass was flash frozen in liquid Nitrogen and stored at −80° C. […]
Quantitative RT-PCR was performed using the EXPRESS One-Step SYBR GreenER Kit (Invitrogen) and the StepOnePlus Real-Time PCR System (Applied Biosystems). […] Data Analysis was performed by the StepOne Software (Applied Biosystems) using Relative Quantitation/Comparative CT (ΔΔCT). […]
Conidia from strains were inoculated at an OD595 equal to 0.05 in 50 ml Vogel's salts (45) with 2% w/v sucrose in a 250 ml Erlenmeyer flask and grown under constant light at 200 rpm for 16 hours. […] Three independent biological duplicates (flasks) were evaluated for each time point. […]

O=C[C@H](O)[C@@H](O)[C@H](O[C@@H]1O[C@H](CO)[C@@H](O)[C@H](O)[C@H]1O)[C@H](O)CO [cellobiose]
induction of gh5-1: ≥ 20,000 fold
